Cell number change and AC50 data for 62 molecules are collected here from PubChem BioAssay AID2685 (National Center for Advancing Translational Sciences (NCATS), 2010).

The other results are listed elsewhere or left out. These are further read-outs of the screen, such as a control signal, another cell line or another target. No call is given for them. Compounds called inactive in the main read-out are mostly missing here. Words in brackets tell the shape of the fitted curve; partial curves, single points and poor fits give uncertain potencies.

The experiment in a line: qHTS Assay for Lipid Storage Modulators in Drosophila S3 Cells.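 For Cell number change: cells counted by Cell Tracker Red CMTPX staining in the red channel.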 The following applies: BODIPY lipid droplet fluorescence, 18-24 h; for cell number change: measured here: cell count max response, cells fed with added oleic acid. In a few lines: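 Drosophila S3 cells got compounds at several concentrations plus oleic acid (400 uM solution). Laser-scanning cytometry with 488 nm excitation read lipid droplets at 500-530 nm and cells at 575-640 nm. Percent activity was relative to 20 uM Triacsin C.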
In general terms: In qHTS, concentration-response curves come from the screen itself.

Setting [1] is: measured here: lipid fluorescence (Fed channel) AC50, cells fed with added oleic acid.
The mark [2] stands for this setting: measured here: cell number channel AC50, cells fed with added oleic acid.

Broadly, the AC50 is the midpoint of the concentration-response curve, whichever way the signal moves. Read a high AC50 as weaker potency.

For the molecule `C/C(=N/Nc1nc(-c2ccc(Cl)cc2)cs1)c1cccs1`, the cell number change was found to be 3.64%. Besides, the AC50 under setting [1] was 4.11 µM [falling, partial curve].

For the molecule `O=C(NCCN1CCN(c2ccccc2F)CC1)C1CC(=O)N(C2CCCC2)C1` (centres undefined), the cell number change amounted to 10.9%. The AC50 under setting [1] is 0.461 µM [rising, single point].

Consider `Cc1ccc(CSc2[nH]c(=O)ncc2C)cc1`, for which the cell number change is 10.4%. Moreover, under setting [1], the AC50 was 29.1 µM [rising, single point].

For `CCOc1ccc(C(=O)N(Cc2ccc(N(C)C)cc2)C2CCS(=O)(=O)C2)cc1` (centres undefined), the cell number change was found to be 237%. Further, under setting [2], the AC50 was 0.461 µM [rising, single point]. Under setting [1], the AC50 was 0.651 µM [rising, single point]. `Cc1cccc(C(=O)NCCNC(=O)c2cccc(C)c2)c1`: the cell number change amounted to 13.6%. For the same molecule, the AC50 under setting [2] was 7.31 µM [rising, partial curve, poor fit]. Take `Cc1[nH]n(-c2ccccc2)c(=O)c1C(C[N+](=O)[O-])c1ccc(Br)cc1` (centres undefined): the cell number change was 0.563%. In addition, under setting [1], the AC50 is 0.731 µM [falling, single point]. `CCN(CC)S(=O)(=O)c1ccc2c(c1)c(=O)c(C(=O)N1CCN(c3ccccn3)CC1)cn2C`: the cell number change came out at 17%. In addition, the half-maximal activity concentration (AC50) under setting [1] was 0.0517 µM [rising, full curve, poor fit]. As for `COc1cccc(Nc2nn3c(=O)c4ccccc4nc3s2)c1`, the cell number change is -39.5%. For the same molecule, under setting [2], the AC50 was 7.31 µM [falling, single point]. For `CC1(C)NC(=O)N(CCCOc2ccc(Br)cc2Cl)C1=O`, the cell number change was found to be 1.15%. Regarding `COc1ccc(CN2CCCCC2C)c(C)c1C` (centres undefined), the cell number change is -20.6%. Besides, the AC50 under setting [1] is 1.16 µM [falling, full curve].

In the case of `C/C(Cc1ccccc1)=N\NC(=O)CNC(=O)c1ccc(Br)cc1`, the cell number change is -41.1%. Moreover, the half-maximal activity concentration (AC50) under setting [2] was 0.231 µM [falling, full curve, poor fit]. Further, the AC50 under setting [1] is 0.00461 µM [falling, full curve, poor fit]. As to `OCc1cn(-c2ccccc2)nc1-c1ccc(-c2nn(-c3ccccc3)cc2CO)cc1`, the cell number change is -0.065%. Take `O=C(NNS(=O)(=O)c1ccc2ccccc2c1)C1CCN(Cc2ccccc2)CC1`: the cell number change worked out at 29%. Also, the AC50 under setting [2] is 0.731 µM [rising, full curve, poor fit]. In addition, the AC50 under setting [1] is 23.1 µM [rising, single point]. Consider `c1csc(-c2nn3c(C4COc5ccccc5O4)nnc3s2)c1` (centres undefined), for which the AC50 under setting [1] is 1.3 µM [rising, partial curve]. As for `O=C(OCCN(C1=NS(=O)(=O)c2ccccc21)c1ccccc1Cl)c1ccc(Cl)cc1`, the cell number change worked out at 58.9%. The AC50 under setting [2] is 16.4 µM [rising, partial curve]. Moreover, the AC50 under setting [1] was 5.17 µM [rising, full curve]. As to `O=C(c1cccc(COc2ccc(Cl)cc2Cl)c1)N1CCN(c2ccccn2)CC1`, the AC50 under setting [1] is 0.651 µM [rising, full curve]. On to `CC(C)(C)n1cnnc1Sc1ncccc1[N+](=O)[O-]`, for which the cell number change was -13.9%. Further, under setting [1], the AC50 was 1.84 µM [falling, partial curve]. In the case of `CNC(=S)Nc1ccc(N2CCN(c3ccc(C(F)(F)F)cn3)CC2)nc1`, the cell number change is -43%. Also, the AC50 under setting [2] is 29.1 µM [falling, single point]. Consider `O=C(N/N=C/c1ccccc1C(=O)O)c1ccncc1`, for which the cell number change came to 5.18%. Under setting [1], the AC50 is 0.326 µM [rising, partial curve, poor fit]. Regarding `Cc1ccc(C(=O)NCC(=O)OCC(=O)c2ccc3c(c2)NC(=O)CO3)cc1C`, the cell number change turned out to be 54.8%. Further, under setting [2], the AC50 was 3.26 µM [rising, full curve]. On to `COCCSc1nnc(NC(=O)C2CCCO2)s1` (centres undefined), for which the cell number change came out at 9.81%. Besides, under setting [1], the AC50 was 0.92 µM [falling, full curve, poor fit]. For the molecule `O=S(=O)(c1ccccc1F)N1CCc2ccccc2C1`, the cell number change is -0.702%. As for `Cc1cc(C(F)F)n2nc(C(=O)O)nc2n1`, the cell number change is -14.5%. In addition, the AC50 under setting [1] is 0.00461 µM [falling, full curve, poor fit].

As for `COc1ccc(S(=O)(=O)Nc2c(O)c3ccccc3oc2=O)cc1`, the cell number change is -10.3%.

Turning to `COc1ccc(-c2nc(-c3ccncc3)no2)cc1OC`, the cell number change is 26%. As for `O=c1[nH]c(=O)n(Cc2ccccc2)c2nc(-c3ccc(Oc4ccc(F)cc4)c([N+](=O)[O-])c3)n(CCO)c12`, the cell number change was -46.4%. Moreover, the AC50 under setting [2] was 16.4 µM [falling, single point]. The AC50 under setting [1] is 18.4 µM [falling, single point]. For the molecule `CCCCCCn1c(N2CCC(C)CC2)nc2c1c(=O)[nH]c(=O)n2C`, the cell number change was -35.5%. Also, the concentration at half-maximal activity (AC50) under setting [2] was 5.17 µM [falling, partial curve].

Turning to `COc1cc(/C=N/NC(=S)NC2CC3CC2C2C=CCC32)ccc1O` (centres undefined), the cell number change was -16.9%. Besides, the AC50 under setting [1] is 18.4 µM [falling, single point]. Regarding `COc1ccc(C2C(C(=O)c3ccc(C)o3)=C(O)C(=O)N2CC2CCCO2)cc1OC` (centres undefined), the cell number change is -4.91%. In addition, under setting [1], the AC50 is 0.164 µM [rising, full curve]. As for `COc1ccc(OC)c(S(=O)(=O)N2CCC(C(=O)N3CCN(c4ccc(F)cc4)CC3)CC2)c1`, the cell number change was -10.1%. For the molecule `CSc1ccccc1C(=O)Nc1cc2c(cc1C(=O)O)OCCCO2`, the cell number change was -19.7%. On to `CCn1c(=O)c(C2=NS(=O)(=O)c3ccccc3N2)c(O)c2ccccc21`, for which the cell number change is -9.24%. Regarding `Cc1c(C(C)(C)O)[nH]c2ccc(C#N)cc12`, the cell number change was -15.6%. Moreover, the AC50 under setting [1] was 0.164 µM [falling, partial curve, poor fit]. With `O=C(Nc1ccc2c(c1)CCC2)c1cccc(S(=O)(=O)N2CCN(c3ccccc3)CC2)c1`, the cell number change stood at 82.2%. Besides, the AC50 under setting [2] was 2.59 µM [rising, full curve]. In addition, the AC50 under setting [1] is 3.66 µM [rising, full curve].

As to `Cc1cc(C)n(C(=O)CNC(=O)COc2ccccc2)n1`, the cell number change was found to be 5.85%. The same measure, in the same setting: next, `Clc1ccc(-c2csc3ncnc(Cl)c23)cc1`: 18.4%. Turning to `COc1cccc(/C=C2/CN(C)CC3=C2OC(N)=C(C#N)C3c2cccc(OC)c2)c1` (centres undefined), the cell number change is -37.4%. For the same molecule, under setting [2], the half-maximal activity concentration (AC50) is 14.6 µM [falling, partial curve, poor fit]. Under setting [1], the AC50 is 14.6 µM [falling, partial curve, poor fit]. With `Cc1cc(C)c([N+](=O)[O-])cc1NC(=O)CCSc1ccccc1Cl`, the cell number change is 5.73%. In addition, under setting [1], the AC50 was 0.146 µM [rising, full curve, poor fit].

As to `COc1cccc(/C=N/n2c(-c3n[nH]c4c3CCC4)n[nH]c2=S)c1OC`, the AC50 under setting [1] is 4.61 µM [rising, single point]. For `CCOC(=O)C1(Cc2cccc(F)c2)CCN(Cc2ccc(COC)o2)CC1`, the cell number change amounted to 18%.

`CCn1c(=O)c2c(cnn2C)c2ccccc21`: the cell number change was -21.6%. In addition, the AC50 under setting [1] is 0.411 µM [rising, partial curve, poor fit]. Turning to `COc1cc(C)c(C)cc1S(=O)(=O)N1CCN(Cc2ccc3c(c2)OCO3)CC1`, the cell number change was -18.4%. Consider `c1ccc2c(c1)NC1(CCCCCC1)n1c-2nc2ccccc21`, for which the cell number change was 28.1%. For the same molecule, under setting [1], the AC50 is 0.092 µM [rising, full curve, poor fit]. `CC(C)(C)OC(=O)N1CCN(C(=O)c2[nH]cnc2C(=O)NCc2ccccc2)CC1`: the cell number change is -36.2%. Moreover, the AC50 under setting [2] is 0.13 µM [falling, full curve, poor fit]. Also, under setting [1], the AC50 is 0.651 µM [falling, single point]. Regarding `CCOc1ccc(N(C(=O)CNC(=O)c2ccco2)C(C(=O)NC2CCCC2)c2cccnc2)cc1` (centres undefined), the cell number change was -10.5%.

As to `COc1ccc(NC(=O)Cn2nnc(-c3ccccc3NC(=O)c3cccs3)n2)cc1`, the cell number change was -13.6%. In addition, the AC50 under setting [2] is 0.82 µM [rising, full curve, poor fit]. Further, under setting [1], the AC50 is 29.1 µM [falling, single point]. Consider `O=C1NC(=S)S/C1=C/c1ccc(N2CCOCC2)o1`, for which the cell number change is -96.9%. Further, the AC50 under setting [2] was 5.17 µM [falling, full curve]. Also, the concentration at half-maximal activity (AC50) under setting [1] is 4.61 µM [falling, full curve]. As for `NS(=O)(=O)c1ccc(N/N=C/c2ccccn2)c([N+](=O)[O-])c1`, the AC50 under setting [1] is 29.1 µM [rising, single point].

With `COc1ccc(-c2csc(NC(=O)C3CC(=O)N(Cc4ccccc4)C3)n2)cc1OC` (centres undefined), the cell number change is -18.1%. Further, under setting [1], the AC50 is 3.66 µM [falling, partial curve].

Consider `Cc1ccc(N2C(N)=C(C#N)C(c3cccnc3)C3=C2CCCC3=O)cc1` (centres undefined), for which the cell number change was 1.98%. Moreover, the concentration at half-maximal activity (AC50) under setting [1] is 0.731 µM [rising, full curve, poor fit]. For `COc1ccc2[nH]c(C(=O)N3CCN(C)CC3)c(C)c2c1`, the cell number change is 21.6%.

In the case of `O=C(CCCCn1c(=O)[nH]c2ccccc2c1=O)N1CCN(c2ncccn2)CC1`, the cell number change stood at 13.7%. In addition, under setting [1], the AC50 was 0.731 µM [rising, full curve]. In the case of `COc1cc(-c2c(-c3ccc4c(c3)OCO4)noc2-c2ccsc2)ccc1F`, the cell number change was -5.69%.

For the molecule `Cn1c(SC2C(=O)CC(C)(C)CC2=O)nnc1-c1ccco1`, the cell number change is -2.64%. Besides, under setting [2], the AC50 is 0.00517 µM [falling, full curve, poor fit]. Under setting [1], the concentration at half-maximal activity (AC50) was 29.1 µM [falling, single point].

Turning to `CC1CC1C(=O)OCC(=O)Nc1cccc(S(=O)(=O)NC2=NCCCCC2)c1` (centres undefined), the cell number change worked out at 8.22%. Also, the AC50 under setting [1] was 16.4 µM [rising, single point]. Take `O=C(c1ccc(Br)o1)N1CCN(c2ccc(F)cc2)CC1`: the cell number change is -0.944%. In addition, under setting [1], the AC50 is 6.51 µM [rising, full curve, poor fit]. With `c1ccc(-c2nc3c4ccccc4ccn3c2CN2CCOCC2)cc1`, the cell number change is -5.42%. Under setting [1], the AC50 is 0.206 µM [falling, full curve, poor fit]. Regarding `COC(=O)/C(C#N)=C/c1cc(C)sc1C`, the cell number change is -2.51%. Moreover, the AC50 under setting [2] is 0.0366 µM [falling, full curve, poor fit].

Regarding `COc1cc2c(cc1NC(=S)NC(=O)/C=C/c1ccc(OC)c(OC)c1)oc1ccccc12`, the cell number change amounted to 11.6%. Same read-out and setting: with `O=C(O)/C=C/C(=O)Nc1ccc(-n2ccc(C(F)(F)F)n2)cc1` the figure was 27.8%. On to `O=C(COC(=O)C1CCN(c2ccc(C(F)(F)F)cn2)CC1)c1ccccc1Cl`, for which the cell number change is -28.1%. In the case of `CN(CC(=O)Nn1cnnc1)S(=O)(=O)c1cc(Cl)ccc1Cl`, the cell number change was -37.1%. Further, under setting [2], the AC50 is 0.116 µM [falling, full curve, poor fit]. Besides, the AC50 under setting [1] is 0.411 µM [falling, partial curve].
